Source: article PMC9163075
These are yes or no findings as the source states them, for the method shown. In cells and extracts the contact can be indirect. Some results given as binding are weak or reduced against the parent protein; the word gives no strength.

Amino acid sequences for entries named in this document (tags omitted).
UniProt P28347: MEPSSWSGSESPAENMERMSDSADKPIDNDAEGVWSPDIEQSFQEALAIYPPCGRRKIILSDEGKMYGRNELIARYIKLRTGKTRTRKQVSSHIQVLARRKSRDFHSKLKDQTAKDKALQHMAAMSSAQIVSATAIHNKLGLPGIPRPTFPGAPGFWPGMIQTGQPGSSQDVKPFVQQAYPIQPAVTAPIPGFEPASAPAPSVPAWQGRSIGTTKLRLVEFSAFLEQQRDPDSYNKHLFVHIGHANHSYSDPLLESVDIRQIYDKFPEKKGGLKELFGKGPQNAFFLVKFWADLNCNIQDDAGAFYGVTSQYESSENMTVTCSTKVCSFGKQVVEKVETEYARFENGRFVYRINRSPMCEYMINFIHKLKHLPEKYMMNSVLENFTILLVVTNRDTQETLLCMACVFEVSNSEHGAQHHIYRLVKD
UniProt Q15561: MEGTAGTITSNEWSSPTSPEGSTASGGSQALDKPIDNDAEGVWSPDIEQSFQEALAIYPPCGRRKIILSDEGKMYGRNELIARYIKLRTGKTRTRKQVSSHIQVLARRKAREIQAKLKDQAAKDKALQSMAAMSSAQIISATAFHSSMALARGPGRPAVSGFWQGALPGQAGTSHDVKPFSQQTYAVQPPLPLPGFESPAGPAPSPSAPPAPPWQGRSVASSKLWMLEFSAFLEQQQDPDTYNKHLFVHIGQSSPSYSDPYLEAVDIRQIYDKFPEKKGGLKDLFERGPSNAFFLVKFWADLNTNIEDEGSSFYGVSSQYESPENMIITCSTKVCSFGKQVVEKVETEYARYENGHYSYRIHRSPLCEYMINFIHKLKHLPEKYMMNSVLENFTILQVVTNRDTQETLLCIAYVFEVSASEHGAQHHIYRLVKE
UniProt P03372: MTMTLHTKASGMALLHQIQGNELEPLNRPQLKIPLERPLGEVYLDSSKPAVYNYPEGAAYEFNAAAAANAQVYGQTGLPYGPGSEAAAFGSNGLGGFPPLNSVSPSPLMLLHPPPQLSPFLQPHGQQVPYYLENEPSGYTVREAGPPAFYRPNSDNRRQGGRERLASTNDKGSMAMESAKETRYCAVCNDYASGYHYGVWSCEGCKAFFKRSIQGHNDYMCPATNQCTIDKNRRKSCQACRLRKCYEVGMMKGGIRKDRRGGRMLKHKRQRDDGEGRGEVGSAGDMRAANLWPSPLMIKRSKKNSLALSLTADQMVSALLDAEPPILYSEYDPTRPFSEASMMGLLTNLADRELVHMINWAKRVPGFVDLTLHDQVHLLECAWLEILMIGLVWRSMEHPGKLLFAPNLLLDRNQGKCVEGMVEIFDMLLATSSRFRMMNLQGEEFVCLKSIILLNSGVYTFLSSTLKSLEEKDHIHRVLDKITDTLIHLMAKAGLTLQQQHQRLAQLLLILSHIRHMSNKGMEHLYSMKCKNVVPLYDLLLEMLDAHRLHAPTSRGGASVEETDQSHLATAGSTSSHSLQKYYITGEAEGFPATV

B1: VGLL4, overexpressed in HEK293T cells (protein, UniProt Q14135 1-290)
chain: METPLDVLSRAASLVHADDEKREAALRGEPRIQTLPVASALSSHRTGPPPISPSKRKFSMEPGDEDLDCDNDHVSKMSRIFNPHLNKTANGDCRRDPRERSRSPIERAVAPTMSLHGSHLYTSLPSLGLEQPLALTKNSLDASRPAGLSPTLTPGERQQNRPSVITCASAGARNCNLSHCPIAHSGCAAPGPASYRRPPSAATTCDPVVEEHFRRSLGKNYKEPEPAPNSVSITGSVDDHFAKALGDTWLQIKAAKDGASSSPESASRRGQPASPSAHMVSHSHSPSVVS

How the values were obtained:
TEAD1 = TEAD1 (UniProt P28347); assay: co-IP; endogenous proteins; MCF-7 lysates precleared with protein-A-Sepharose, incubated overnight with antibodies for ERα, YAP or TEAD4, mouse IgG as negative control, western blot; also after 2 μM XMU-MP-1 for the indicated time (more TEAD4-YAP, less TEAD4-ERα)
[1] = target: TEAD4 in HEK293T cells (VGLL4 experiment, Supplementary Fig. 9) (UniProt Q15561); assay: co-IP; HEK293T with overexpressed VGLL4 (Supplementary Fig. 9); the sentence does not name the method, co-IP is the only binding method of the paper

Molecule	binding (TEAD1)	binding [1]
Estrogen receptor α (ERα), endogenous in MCF-7 cells (from UniProt P03372 1-595)	binds	
B1		binds
